Measured data: PubChem BioAssay AID1259254 (NCATS, 2017)

Assay: 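Finding genes that stop cells copying their DNA twice in one cycle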 (primary screen)
System: human HCT116 colorectal cancer cells
Reagent: single siRNA against human genes
Duration: 3 days
Read-out: 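Nuclei stained with Hoechst and imaged; cell-cycle phase assigned by DNA content; G2 share scaled per plate, non-targeting siRNA 0%, GMNN siRNA 100%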
Reading the numbers: G2 robust z-score: higher = more G2 cells, more excess DNA replication
Active means: 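Active siRNAs have a G2 robust z of 5 or more median absolute deviations over the median, which in these data means about 38% or higher of GMNN control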
Shown is a random part of about 59,000 deposited reagents. About 1,550 of them (2.6%) count as active. 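G2 share is only a proxy for re-replication; each gene was hit by three separate siRNAs, and active genes were retested.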 The numbers tell different reagents against one gene apart. Not all columns of the deposit are shown. Reagent sequences are not shown. The record does not give: the amount of reagent.

{"gene": "DDR1", "reagent no.": 1, "G2 robust z-score": -1.9, "call": "inactive"}
{"gene": "DDR1", "reagent no.": 2, "G2 robust z-score": 6.96, "call": "active"}
{"gene": "DDR1", "reagent no.": 3, "G2 robust z-score": -0.921, "call": "inactive"}
{"gene": "GNG3", "reagent no.": 1, "G2 robust z-score": -1.23, "call": "inactive"}
{"gene": "GNG3", "reagent no.": 2, "G2 robust z-score": -0.236, "call": "inactive"}
{"gene": "GNG3", "reagent no.": 3, "G2 robust z-score": 1.69, "call": "inactive"}

Single entries from above.
DDR1 #3, call → inactive
Under “call”, DDR1 #1 is entered as inactive

Continued.
{"gene": "HHEX", "reagent no.": 1, "G2 robust z-score": 3.44, "call": "inactive"}
{"gene": "HHEX", "reagent no.": 2, "G2 robust z-score": -0.898, "call": "inactive"}
{"gene": "HHEX", "reagent no.": 3, "G2 robust z-score": -0.0144, "call": "inactive"}
{"gene": "LINC00303", "reagent no.": 1, "G2 robust z-score": 0.0136, "call": "inactive"}
{"gene": "LINC00303", "reagent no.": 2, "G2 robust z-score": 0.294, "call": "inactive"}
{"gene": "LINC00303", "reagent no.": 3, "G2 robust z-score": 2.77, "call": "inactive"}
